Measured values taken from PMC8034431.
These are yes or no findings as the source states them, for the method shown. Values belong to the binder of their own block, whether it stands above or below them.

Assays:
[1] = biological target: thrombin-digested FL_(L27D) protein; experiment: crystal structure; FL_(L27D) without tag, 22 mg/ml, 2.0 M ammonium sulfate, 0.1 M HEPES pH 5.0, 293 K; space group P1, two copies in the unit cell, 1.65 Å; both purified
[2] = biological target: FLT3 ligand Leu27Asp mutant (FL_(L27D)), as produced; experiment: SEC-MALS; each ligand alone; 1 mg/ml injected on Superdex 200 Increase, HBS (20 mM HEPES pH 7.4, 150 mM NaCl), 0.5 ml/min, 25 °C; FL_(L27D) tested up to 95.83 µM (1.7 mg/ml); both purified

binding [1]: no binding
B1: thrombin-digested FL_(L27D) protein (ligand)
chain: GSHMTQDCSFQHSPISSDFAVKIRELSDYLDQDYPVTVASNLQDEELCGGLWRLVLAQRWMERLKTVAGSKMQGLLERVNTEIHFVTKCAFQPPPSCLRFVQTNISRLLQETSEQLVALKPWITRQNFSRCLELQCQP

B2: FLT3 ligand Leu27Asp mutant (FL_(L27D)), as produced (ligand)
chain: TQDCSFQHSPISSDFAVKIRELSDYLDQDYPVTVASNLQDEELCGGLWRLVLAQRWMERLKTVAGSKMQGLLERVNTEIHFVTKCAFQPPPSCLRFVQTNISRLLQETSEQLVALKPWITRQNFSRCLELQCQP
binding [2]: no binding (tested: 95.83 µM (1.7 mg ml^−1))
